Binding data for five substances are collected here from doi:10.1101/2019.12.12.874503.

These are yes or no findings as the source states them, for the method shown. In cells and extracts the contact can be indirect. Binding calls can cover weak binding; strength is not graded here. Where a sequence is shown, tags or fusion partners need not be part of it.

The target in this experiment is T1, uL5c-HA (chloroplast-encoded ribosomal protein Rpl5 with C-terminal triple-HA tag) (Chlamydomonas reinhardtii) (UniProt Q8HTL1).
T1 sequence: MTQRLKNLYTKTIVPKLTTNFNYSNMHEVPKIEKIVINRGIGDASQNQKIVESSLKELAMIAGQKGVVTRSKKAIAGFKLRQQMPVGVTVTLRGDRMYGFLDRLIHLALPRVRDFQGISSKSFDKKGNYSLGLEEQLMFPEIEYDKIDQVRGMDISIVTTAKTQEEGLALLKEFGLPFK
Briefly: co-IP.
As for uL37, the binding result is recorded as “no binding”. As for uL1c, the entry is “binds”. To cpSRP54 belongs “binds”; to trigger factor (TIG1), “binds”; to uS11c, “binds”.
